Some of these results come from one statement about several compounds together. Some compounds share one range, which may span the group rather than tell each member.
Experiments:
[1] = system: armyworm; assay: bioactivity test against armyworm, airbrush spray; type: in vivo; details: mortality after 72 h
Protocol: (§1) Compounds were dissolved in mixed solvent (acetone:methanol=1:1), and diluted to required concentration with water containing 0.1% of tween 80.
(§2) Diamond back moth, armyworm, peach aphid and carmine spider mite were used as targets and the method of spraying by airbrush was used for determination of insecticidal biassays.
(§3) The method of spraying by airbrush: The corn leaves were made into plates of 2 cm diameter by use of punch. A test solution (0.5 ml) was sprayed by airbrush at the pressure of 0.7 kg/cm^2 to both sides of every plate. 10 Second instar larvae were put into the petri-dishes after the leaf disc air-dried and 3 replicates were set for each treatment. Then the insects were maintained in observation room (25 °C, 60˜70% R.H.). Scores were conducted and mortalities were calculated after 72 h.

[2] = system: cucumber downy mildew; assay: protectant activity in vivo against cucumber downy mildew
[3] = system: rice blast; type: cell-based; details: 25 ppm, in vitro
[4] = system: wheat powdery mildew; assay: protectant activity in vivo against wheat powdery mildew
[5] = system: carmine spider mite; assay: bioactivity test against carmine spider mite, airbrush spray; type: in vivo; details: mortality after 72 hrs
Protocol: as §1, §2
The method: Broadbean shoots with two true leaves in pot were taken, the healthy adults of carmine spider mite were inoculated to the leaves. The adults were counted and then sprayed with airbrush at the pressure of 0.7 kg/cm^2 and at dose of 0.5 ml. 3 replicates were set for each treatment. And then they were maintained in standard observation room. Scores were conducted and mortalities were calculated after 72 hrs.

[6] = system: Green peach aphids (Myzus Persicae Sulzer); assay: bioactivity test against green peach aphid, airbrush foliar spray; type: in vivo; details: death rate after 48 hrs
Protocol: as §1, §2
Method: Filter papers were put in culture dishes (Diameter=6 cm), and water was dripped on filter papers for preserving moisture. Green peach aphids (Myzus Persicae Sulzer) were maintained on cabbage. Leaves (Diameter=3 cm) of approximately 15-30 aphids were put in the culture dishes. Bioactivity tests were used the method of Airbrush Foliar Spray, pressure=10 psi (0.7 kg/cm2), spray volume=0.5 mL. The studies were conducted at […] 25±1 C in incubator cabinets with 60±5% RH. Survey the survival aphids after 48 hrs and calculate the death rates.

[7] = system: corn rust; assay: protectant activity in vivo against corn rust
[8] = system: Diamond back moth; assay: insecticidal activity against diamond back moth, airbrush spray; type: in vivo; details: mortality after 72 hrs
Protocol: as §1, §2
as §3, with “The cabbage” for “The corn”, “room (25° C.,” for “room (25 °C,”, “72 hrs.” for “72 h.”

CCc1ncnc(NCCc2ccc(Oc3ncc(C(F)(F)F)cc3Cl)c(Cl)c2)c1Cl [Compound I-1472]
80%-99%: control (test results against armyworm) ([1]; 100 ppm)

COc1cc(CCNc2ncnc(C)c2Cl)ccc1Oc1ccc(Cl)cc1 [II-1687]
80%-99%: protectant activity against cucumber downy mildew in vivo ([2]; 25 ppm) | inhibition rate against rice blast [3] | protectant activity against wheat powdery mildew in vivo ([4]; 6.25 ppm)

Cc1ncnc(NCCc2ccc(Oc3ncc(C(F)(F)F)cc3Cl)c(Cl)c2)c1Cl [Compound I-1414]
80%-99%: control against carmine spider mite ([5]; 600 ppm)

Cc1ncnc(NCCc2ccc(Oc3ccccc3)nc2)c1Cl [III-1]
80%-99%: control (test results against green peach aphid) ([6]; 100 ppm) | control against carmine spider mite ([5]; 100 ppm) | inhibition rate against rice blast [3] | protectant activity against wheat powdery mildew in vivo ([4]; 100 ppm)

CCOC(=O)c1ccc(Oc2ccc(CCNc3ncnc(C)c3Cl)cc2)nc1 [Compound I-35]
80%-99%: protectant activity against corn rust in vivo ([7]; 25 ppm) | protectant activity against cucumber downy mildew in vivo ([2]; 100 ppm) | inhibition rate against rice blast [3]

Cc1nc(Cl)c(Cl)c(NCCc2ccc(Oc3cccc(C(F)(F)F)c3)nc2)n1 [III-2541]
80%-99%: control (test results against armyworm) ([1]; 600 ppm) | protectant activity against corn rust in vivo ([7]; 400 ppm) | control (test results against green peach aphid) ([6]; 600 ppm) | protectant activity against cucumber downy mildew in vivo ([2]; 25 ppm) | inhibition rate against rice blast [3] | protectant activity against wheat powdery mildew in vivo ([4]; 100 ppm)

Cc1ncnc(NCCc2ccc(Oc3ccc(C#N)cc3F)cc2)c1Cl [II-204]
80%-99%: protectant activity against corn rust in vivo ([7]; 6.25 ppm) | control (test results against green peach aphid) ([6]; 2.5 ppm) | control against carmine spider mite ([5]; 5 ppm) | protectant activity against cucumber downy mildew in vivo ([2]; 12.5 ppm) | inhibition rate against rice blast [3]

FC(F)c1ncnc(NCCc2ccc(Oc3ccccc3)nc2)c1Cl [III-541]
80%-99%: control (test results against green peach aphid) ([6]; 10 ppm) | control against carmine spider mite ([5]; 100 ppm) | inhibition rate against rice blast [3] | protectant activity against wheat powdery mildew in vivo ([4]; 100 ppm)

CCc1ncnc(NCCc2ccc(Oc3cccc(Cl)c3)nc2)c1Cl [III-186]
80%-99%: protectant activity against corn rust in vivo ([7]; 100 ppm) | control (test results against green peach aphid) ([6]; 10 ppm) | inhibition rate against rice blast [3]

Cc1nc(Cl)c(Cl)c(NCCc2ccc(Oc3cccc(Cl)c3)nc2)n1 [III-2526]
80%-99%: control (test results against diamond back moth) ([8]; 600 ppm) | protectant activity against corn rust in vivo ([7]; 100 ppm) | control (test results against green peach aphid) ([6]; 600 ppm) | inhibition rate against rice blast [3]

CCc1ncnc(NCCc2ccc(Oc3ccc(C#N)cn3)cc2)c1Cl [Compound I-255]
80%-99%: protectant activity against cucumber downy mildew in vivo ([2]; 12.5 ppm) | inhibition rate against rice blast [3] | protectant activity against wheat powdery mildew in vivo ([4]; 6.25 ppm)

Cc1ncnc(NCCc2ccc(Oc3ccc(Cl)cc3Cl)cc2)c1Cl [II-21]
80%-99%: control (test results against diamond back moth) ([8]; 600 ppm) | protectant activity against corn rust in vivo ([7]; 6.25 ppm) | protectant activity against corn rust in vivo ([7]; 25 ppm) | control (test results against green peach aphid) ([6]; 10 ppm) | control (test results against green peach aphid) ([6]; 100 ppm)

CCc1ncnc(NCCc2ccc(Oc3ccc(Cl)cc3)nc2)c1Cl [III-187]
80%-99%: control (test results against diamond back moth) ([8]; 100 ppm) | control (test results against armyworm) ([1]; 10 ppm) | inhibition rate against rice blast [3]

Cc1ncnc(NCCc2ccc(Oc3ccc(Cl)cc3)cc2)c1Cl [II-19]
80%-99%: protectant activity against corn rust in vivo ([7]; 100 ppm) | inhibition rate against rice blast [3] | protectant activity against wheat powdery mildew in vivo ([4]; 6.25 ppm) | protectant activity against wheat powdery mildew in vivo ([4]; 25 ppm) | protectant activity against wheat powdery mildew in vivo ([4]; 100 ppm)

CCc1ncnc(NCCc2ccc(Oc3ccc(C(F)(F)F)cc3Cl)cc2)c1Cl [II-432]
80%-99%: control (test results against diamond back moth) ([8]; 600 ppm) | control (test results against armyworm) ([1]; 600 ppm)

Source: US9770026B2, “Substituted pyrimidine compound and uses thereof” (Shenyang Sinochem Agrochemicals R&D Co., Ltd., priority 2012, dated 2017)
